From the supplement of paper PMC10849652
This is one part of the list.

The chains behind the UniProt entries cited, without tags or fusion partners. Where a name states a change or a piece, a line headed by the entry shows the natural chain unless it says otherwise.
UniProt P56182: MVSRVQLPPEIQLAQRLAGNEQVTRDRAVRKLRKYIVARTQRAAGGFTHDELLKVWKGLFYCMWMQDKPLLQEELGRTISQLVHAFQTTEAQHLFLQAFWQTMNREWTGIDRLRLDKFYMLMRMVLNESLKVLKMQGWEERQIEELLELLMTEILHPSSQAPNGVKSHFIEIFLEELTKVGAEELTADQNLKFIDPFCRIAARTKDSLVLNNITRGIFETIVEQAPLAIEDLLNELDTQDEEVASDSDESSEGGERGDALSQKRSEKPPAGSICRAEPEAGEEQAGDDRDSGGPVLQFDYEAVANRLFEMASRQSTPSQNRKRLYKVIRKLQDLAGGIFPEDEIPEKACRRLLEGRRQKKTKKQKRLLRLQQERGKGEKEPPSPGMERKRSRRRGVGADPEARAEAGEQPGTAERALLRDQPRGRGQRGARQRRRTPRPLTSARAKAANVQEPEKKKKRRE
UniProt Q7L4I2: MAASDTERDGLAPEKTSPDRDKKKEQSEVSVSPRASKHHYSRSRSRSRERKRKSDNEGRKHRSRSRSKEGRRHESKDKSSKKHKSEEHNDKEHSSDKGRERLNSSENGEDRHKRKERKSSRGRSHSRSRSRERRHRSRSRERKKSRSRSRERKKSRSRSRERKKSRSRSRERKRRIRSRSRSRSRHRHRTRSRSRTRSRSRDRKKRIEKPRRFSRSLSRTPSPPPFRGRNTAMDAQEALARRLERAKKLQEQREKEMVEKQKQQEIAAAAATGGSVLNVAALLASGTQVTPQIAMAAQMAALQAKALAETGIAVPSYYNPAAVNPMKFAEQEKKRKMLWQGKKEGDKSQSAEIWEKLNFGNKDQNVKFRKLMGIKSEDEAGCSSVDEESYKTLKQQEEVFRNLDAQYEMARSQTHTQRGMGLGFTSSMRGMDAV
UniProt Q5VWQ0: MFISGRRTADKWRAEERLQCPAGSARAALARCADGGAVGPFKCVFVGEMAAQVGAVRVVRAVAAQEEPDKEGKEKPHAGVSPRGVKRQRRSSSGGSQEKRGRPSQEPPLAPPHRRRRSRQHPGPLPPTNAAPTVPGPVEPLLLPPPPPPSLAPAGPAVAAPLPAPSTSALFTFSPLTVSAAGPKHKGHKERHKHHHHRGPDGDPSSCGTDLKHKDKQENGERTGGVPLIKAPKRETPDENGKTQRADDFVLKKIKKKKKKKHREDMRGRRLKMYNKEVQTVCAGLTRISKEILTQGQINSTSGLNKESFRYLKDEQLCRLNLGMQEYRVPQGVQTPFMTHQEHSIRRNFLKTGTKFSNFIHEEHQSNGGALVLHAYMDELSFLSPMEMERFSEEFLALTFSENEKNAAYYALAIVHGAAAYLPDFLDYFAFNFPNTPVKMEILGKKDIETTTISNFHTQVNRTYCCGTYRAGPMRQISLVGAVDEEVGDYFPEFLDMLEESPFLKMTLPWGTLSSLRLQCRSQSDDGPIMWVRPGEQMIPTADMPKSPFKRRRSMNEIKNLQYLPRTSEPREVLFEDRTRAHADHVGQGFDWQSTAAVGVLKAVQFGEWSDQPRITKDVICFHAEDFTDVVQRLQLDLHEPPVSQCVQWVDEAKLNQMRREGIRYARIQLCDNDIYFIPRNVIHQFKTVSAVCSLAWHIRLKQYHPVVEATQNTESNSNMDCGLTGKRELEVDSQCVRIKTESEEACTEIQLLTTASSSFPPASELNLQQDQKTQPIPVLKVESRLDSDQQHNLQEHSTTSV
UniProt O43818: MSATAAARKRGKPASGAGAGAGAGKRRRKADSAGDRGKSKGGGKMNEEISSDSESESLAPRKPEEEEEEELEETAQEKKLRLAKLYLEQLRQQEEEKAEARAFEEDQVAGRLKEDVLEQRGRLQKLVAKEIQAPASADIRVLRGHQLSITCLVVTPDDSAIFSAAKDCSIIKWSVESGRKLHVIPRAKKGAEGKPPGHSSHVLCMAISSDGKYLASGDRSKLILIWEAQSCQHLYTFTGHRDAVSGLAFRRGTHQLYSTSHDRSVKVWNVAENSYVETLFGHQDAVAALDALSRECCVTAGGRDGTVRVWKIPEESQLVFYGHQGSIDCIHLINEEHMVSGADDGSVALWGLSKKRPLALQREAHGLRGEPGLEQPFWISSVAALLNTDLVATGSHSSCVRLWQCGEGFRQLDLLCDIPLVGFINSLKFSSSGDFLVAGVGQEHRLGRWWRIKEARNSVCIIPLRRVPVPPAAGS
UniProt Q14684: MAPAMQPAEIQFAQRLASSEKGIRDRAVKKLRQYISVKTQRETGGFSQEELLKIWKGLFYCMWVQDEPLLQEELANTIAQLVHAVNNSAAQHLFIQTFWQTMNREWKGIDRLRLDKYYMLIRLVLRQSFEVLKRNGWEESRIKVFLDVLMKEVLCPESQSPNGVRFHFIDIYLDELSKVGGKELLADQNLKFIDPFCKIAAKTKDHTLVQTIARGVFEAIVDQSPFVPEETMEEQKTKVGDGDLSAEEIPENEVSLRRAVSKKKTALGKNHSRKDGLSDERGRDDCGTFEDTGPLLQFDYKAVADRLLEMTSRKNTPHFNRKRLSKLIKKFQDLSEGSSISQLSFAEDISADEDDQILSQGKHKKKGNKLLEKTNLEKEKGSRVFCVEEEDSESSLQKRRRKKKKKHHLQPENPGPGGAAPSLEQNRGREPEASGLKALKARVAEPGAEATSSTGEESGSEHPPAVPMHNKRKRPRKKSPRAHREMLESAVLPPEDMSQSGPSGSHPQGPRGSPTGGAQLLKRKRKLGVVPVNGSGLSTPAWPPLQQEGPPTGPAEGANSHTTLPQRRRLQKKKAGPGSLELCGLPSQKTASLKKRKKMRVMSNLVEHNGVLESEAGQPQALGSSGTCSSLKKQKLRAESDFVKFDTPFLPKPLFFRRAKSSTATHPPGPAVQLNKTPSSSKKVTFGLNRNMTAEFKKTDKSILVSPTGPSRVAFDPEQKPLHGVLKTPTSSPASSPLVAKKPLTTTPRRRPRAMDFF
UniProt P78346: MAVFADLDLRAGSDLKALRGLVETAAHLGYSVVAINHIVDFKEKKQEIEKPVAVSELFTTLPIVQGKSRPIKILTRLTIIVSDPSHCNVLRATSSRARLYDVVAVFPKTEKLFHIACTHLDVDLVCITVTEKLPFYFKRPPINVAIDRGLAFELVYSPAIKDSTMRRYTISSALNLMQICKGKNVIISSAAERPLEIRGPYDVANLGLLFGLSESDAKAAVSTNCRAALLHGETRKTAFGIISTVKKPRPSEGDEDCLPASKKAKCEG
UniProt Q15404: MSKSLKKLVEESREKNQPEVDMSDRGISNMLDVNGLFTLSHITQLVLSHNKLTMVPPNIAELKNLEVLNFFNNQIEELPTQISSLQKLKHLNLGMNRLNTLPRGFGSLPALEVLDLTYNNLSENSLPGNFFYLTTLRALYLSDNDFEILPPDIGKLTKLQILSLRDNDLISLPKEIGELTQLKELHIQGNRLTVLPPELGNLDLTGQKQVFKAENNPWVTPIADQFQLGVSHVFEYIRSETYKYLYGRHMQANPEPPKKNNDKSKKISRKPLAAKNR
UniProt P23921: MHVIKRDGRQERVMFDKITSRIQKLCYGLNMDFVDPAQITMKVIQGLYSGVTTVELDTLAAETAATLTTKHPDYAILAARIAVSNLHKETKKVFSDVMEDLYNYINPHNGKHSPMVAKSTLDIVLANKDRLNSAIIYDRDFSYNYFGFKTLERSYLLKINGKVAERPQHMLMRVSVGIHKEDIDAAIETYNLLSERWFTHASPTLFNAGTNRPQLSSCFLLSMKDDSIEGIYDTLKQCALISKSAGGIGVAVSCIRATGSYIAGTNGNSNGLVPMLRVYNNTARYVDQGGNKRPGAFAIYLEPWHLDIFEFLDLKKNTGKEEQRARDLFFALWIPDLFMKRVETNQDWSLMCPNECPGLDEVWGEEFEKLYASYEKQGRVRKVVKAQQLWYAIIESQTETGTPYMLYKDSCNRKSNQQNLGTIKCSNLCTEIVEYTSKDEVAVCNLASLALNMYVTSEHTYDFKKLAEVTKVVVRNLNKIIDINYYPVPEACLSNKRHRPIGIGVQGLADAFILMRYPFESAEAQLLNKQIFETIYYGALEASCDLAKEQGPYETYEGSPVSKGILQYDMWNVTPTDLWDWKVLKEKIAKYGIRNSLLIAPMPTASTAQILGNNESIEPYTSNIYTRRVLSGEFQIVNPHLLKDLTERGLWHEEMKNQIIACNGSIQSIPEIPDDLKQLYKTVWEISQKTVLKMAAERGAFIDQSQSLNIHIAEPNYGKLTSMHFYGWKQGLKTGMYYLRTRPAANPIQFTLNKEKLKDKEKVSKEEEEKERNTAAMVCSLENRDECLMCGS

Tests used:
Experiment in all cases: log2 fold change, soluble protein after heating vs DMSO (PISA); higher = thermal stabilisation; K562 lysate, 10 uM; active = over 0.2 and 3.5 SD of the protein, either way, in both replicates (recomputed)
alvocidib = compound: CN1CC[C@H](c2c(O)cc(O)c3c(=O)cc(-c4ccccc4Cl)oc23)[C@H](O)C1 [alvocidib]
Outline: (§1)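 Soluble protein was defined as the supernatant remaining after 21,000xg for 90 min, following pooling of heated aliquots and adjustment to 0.5% NP-40 at 4°C. Before that, crude K562 extract at 1 mg/mL protein in PBS pH 7.4 with 1 mM MgCl2 was treated with 10 μM compound for 30 min and heated for 3 min across 48°C-58°C. Quantification used TMTpro 16plex LC-MS/MS with channel sums equalised, and values are log-two fold changes in thermal stability relative to solvent controls from duplicates.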

Tubastatin A = compound: CN1CCc2c(c3ccccc3n2Cc2ccc(C(=O)NO)cc2)C1 [Tubastatin A]
Outline: as §1

[1] = compound: CNC(=O)C1=CC=CC=C1NC2=NC(=NC=C2Cl)NC3=C(C=C(C=C3)N4CCOCC4)OC
Outline: as §1

defactinib = compound: CNC(=O)c1ccc(Nc2ncc(C(F)(F)F)c(NCc3nccnc3N(C)S(C)(=O)=O)n2)cc1 [defactinib]
Outline: as §1

[2] = compound: CNc1nc(-c2ccc3c(N)n[nH]c3c2)cc(N2C[C@@H](C(=O)NC3CCCCC3)CC[C@H]2C)n1
Outline: as §1

encorafenib = compound: COC(=O)N[C@@H](C)CNc1nccc(-c2cn(C(C)C)nc2-c2cc(Cl)cc(NS(C)(=O)=O)c2F)n1 [encorafenib]
Outline: as §1

[3] = compound: COC(=O)[C@H](CCSC)NC(=O)C1=C(C=C(C=C1)NC[C@H](CS)N)C2=CC=CC=C2
Outline: as §1

alisertib = compound: COc1cc(Nc2ncc3c(n2)-c2ccc(Cl)cc2C(c2c(F)cccc2OC)=NC3)ccc1C(=O)O [alisertib]
Outline: as §1

[4] = compound: COc1cc2nc(-c3cc(F)ccc3O)nc(N[C@@H]3CNC[C@H]3C(C)(C)O)c2cc1OC
Outline: as §1

gefitinib = compound: COc1cc2ncnc(Nc3ccc(F)c(Cl)c3)c2cc1OCCCN1CCOCC1 [gefitinib]
Outline: as §1

lapatinib = compound: CS(=O)(=O)CCNCc1ccc(-c2ccc3ncnc(Nc4ccc(OCc5cccc(F)c5)c(Cl)c4)c3c2)o1 [lapatinib]
Outline: as §1

pictilisib = compound: CS(=O)(=O)N1CCN(Cc2cc3nc(-c4cccc5[nH]ncc45)nc(N4CCOCC4)c3s2)CC1 [pictilisib]
Outline: as §1

crizotinib = compound: C[C@@H](Oc1cc(-c2cnn(C3CCNCC3)c2)cnc1N)c1c(Cl)ccc(F)c1Cl [crizotinib]
Outline: as §1

[5] = compound: C[C@H](C1=CC=C(C=C1)C(=O)NC2=C3C=CNC3=NC=C2)N
Outline: as §1

duvelisib = compound: C[C@H](Nc1ncnc2nc[nH]c12)c1cc2cccc(Cl)c2c(=O)n1-c1ccccc1 [duvelisib]
Outline: as §1

gandotinib = compound: Cc1cc(Nc2cc(CN3CCOCC3)c3nc(C)c(Cc4ccc(Cl)cc4F)n3n2)n[nH]1 [gandotinib]
Outline: as §1

tozasertib = compound: Cc1cc(Nc2cc(N3CCN(C)CC3)nc(Sc3ccc(NC(=O)C4CC4)cc3)n2)n[nH]1 [tozasertib]
Outline: as §1

doramapimod = compound: Cc1ccc(-n2nc(C(C)(C)C)cc2NC(=O)Nc2ccc(OCCN3CCOCC3)c3ccccc23)cc1 [doramapimod]
Outline: as §1

bafetinib = compound: Cc1ccc(NC(=O)c2ccc(CN3CC[C@H](N(C)C)C3)c(C(F)(F)F)c2)cc1Nc1nccc(-c2cncnc2)n1 [bafetinib]
Outline: as §1

[6] = compound: Cc1cccc(CC(=O)N2CCc3c2ccc(-c2cn(C)c4ncnc(N)c24)c3F)n1
Outline: as §1

Measured: log2 fold change

RPS3 (UniProt P23396)
inactive: alvocidib 0.016 | Tubastatin A -0.015 | [1] -0.034 | defactinib -0.004 | [2] -0.048 | encorafenib 0 | [3] 0.042 | alisertib 0.017 | [4] -0.001 | gefitinib -0.039 | lapatinib -0.017 | pictilisib 0.001 | crizotinib -0.003 | [5] 0.008 | duvelisib 0.012 | gandotinib -0.014 | tozasertib 0.002 | doramapimod -0.002 | bafetinib 0.003 | [6] -0.026

RPS24 isoform 4 (UniProt P62847)
inactive: alvocidib -0.002 | Tubastatin A -0.002 | [1] -0.008 | defactinib -0.006 | [2] -0.009 | encorafenib -0.009 | [3] 0.047 | alisertib -0.004 | [4] -0.027 | gefitinib -0.017 | lapatinib -0.048 | pictilisib 0.007 | crizotinib -0.022 | [5] 0.008 | duvelisib 0.022 | gandotinib -0.028 | tozasertib -0.01 | doramapimod 0.006 | bafetinib -0.016 | [6] 0.01

RPLP0 (UniProt P05388)
inactive: alvocidib 0.034 | Tubastatin A 0.017 | [1] -0.026 | defactinib -0.007 | [2] 0.049 | encorafenib 0.008 | [3] 0.016 | alisertib 0.028 | [4] -0.006 | gefitinib 0.004 | lapatinib -0.084 | pictilisib -0.001 | crizotinib -0.039 | [5] -0.012 | duvelisib 0.01 | gandotinib 0.017 | tozasertib -0.005 | doramapimod -0.005 | bafetinib 0.025 | [6] -0.017

RRP1 (UniProt P56182)
inactive: alvocidib 0.066 | Tubastatin A -0.064 | [1] -0.018 | defactinib -0.023 | [2] -0.18 | encorafenib 0.079 | [3] 0.107 | alisertib 0.026 | [4] 0.018 | gefitinib 0.02 | lapatinib -0.02 | pictilisib -0.038 | crizotinib 0.026 | [5] 0.11 | duvelisib 0.048 | gandotinib -0.155 | tozasertib -0.032 | doramapimod -0.035 | bafetinib -0.178 | [6] -0.045

RSRC2 (UniProt Q7L4I2)
inactive: alvocidib -0.056 | Tubastatin A 0.015 | [1] -0.068 | defactinib 0.027 | [2] 0.064 | encorafenib 0.055 | [3] -0.021 | alisertib -0.017 | [4] 0.023 | gefitinib 0.048 | lapatinib 0.011 | pictilisib 0.022 | crizotinib 0.078 | [5] -0.027 | duvelisib 0.02 | gandotinib 0.116 | tozasertib -0.035 | doramapimod 0.119 | bafetinib 0.015 | [6] 0

RPS26P11 (UniProt Q5JNZ5)
inactive: alvocidib -0.216 | Tubastatin A 0.038 | [1] -0.064 | defactinib 0.011 | [2] 0.02 | encorafenib 0.007 | [3] 0.006 | alisertib -0.006 | [4] -0.032 | gefitinib -0.056 | lapatinib 0.024 | pictilisib -0.008 | crizotinib -0.085 | duvelisib 0.076 | gandotinib 0.147 | tozasertib -0.055 | doramapimod 0.021 | bafetinib -0.072
active: [5] -0.484 | [6] 0.24

RSBN1 (UniProt Q5VWQ0)
inactive: alvocidib 0.043 | Tubastatin A -0.052 | [1] 0.041 | defactinib -0.02 | [2] 0.04 | encorafenib 0.074 | [3] 0.032 | alisertib -0.069 | [4] -0.019 | gefitinib 0.02 | lapatinib -0.034 | pictilisib -0.01 | crizotinib -0.05 | [5] -0.01 | duvelisib -0.002 | gandotinib 0.036 | tozasertib -0.067 | doramapimod 0.021 | bafetinib 0.02 | [6] 0.046

RRP9 (UniProt O43818)
inactive: alvocidib -0.018 | Tubastatin A 0.103 | [1] -0.012 | defactinib -0.06 | [2] -0.193 | encorafenib -0.05 | [3] 0.106 | alisertib 0.024 | [4] -0.007 | gefitinib -0.026 | lapatinib -0.024 | pictilisib 0.001 | crizotinib -0.049 | [5] -0.11 | duvelisib -0.054 | gandotinib 0 | tozasertib 0.235 | doramapimod 0.018 | bafetinib -0.197 | [6] 0.02

RRP1B (UniProt Q14684)
inactive: alvocidib -0.008 | Tubastatin A -0.05 | [1] 0.017 | defactinib -0.074 | [2] 0.044 | encorafenib 0.048 | [3] 0.024 | alisertib 0.001 | [4] 0.002 | gefitinib -0.018 | lapatinib -0.007 | pictilisib -0.035 | crizotinib 0.005 | [5] 0.027 | duvelisib -0.005 | gandotinib -0.078 | tozasertib -0.011 | doramapimod 0.023 | bafetinib -0.141 | [6] 0.016

RPLP0P6 (UniProt Q8NHW5)
inactive: alvocidib -0.018 | Tubastatin A 0.015 | [1] -0.001 | defactinib -0.014 | [2] 0.023 | encorafenib 0.001 | [3] 0.018 | alisertib 0.004 | [4] 0.023 | gefitinib -0.019 | lapatinib 0.003 | pictilisib 0.033 | crizotinib -0.013 | [5] 0.014 | duvelisib 0.016 | gandotinib -0.013 | tozasertib -0.005 | doramapimod 0.001 | [6] 0.034
active: bafetinib 0.274

RPS27 (UniProt P42677)
inactive: alvocidib 0.119 | Tubastatin A 0.063 | [1] 0.045 | defactinib 0.027 | [2] 0.042 | encorafenib -0.037 | [3] 0.058 | alisertib 0.087 | [4] 0.007 | gefitinib -0.097 | lapatinib -0.074 | pictilisib 0.013 | crizotinib 0.002 | [5] -0.121 | duvelisib -0.009 | gandotinib 0.164 | tozasertib -0.012 | doramapimod -0.088 | bafetinib -0.008 | [6] -0.071

RPP30 isoform 2 (UniProt P78346)
inactive: alvocidib -0.02 | Tubastatin A -0.003 | [1] 0.014 | defactinib -0.036 | [2] 0.028 | encorafenib -0.018 | [3] -0.035 | alisertib 0.003 | [4] 0.014 | gefitinib 0.004 | lapatinib -0.008 | pictilisib 0.007 | crizotinib 0.029 | [5] 0.029 | duvelisib 0.034 | gandotinib 0.039 | tozasertib -0.01 | doramapimod -0.019 | bafetinib 0.026 | [6] -0.022

RPL9 (UniProt P32969)
inactive: alvocidib 0.02 | Tubastatin A -0.02 | [1] 0.007 | defactinib 0.033 | [2] 0.025 | encorafenib 0.034 | [3] 0.034 | alisertib 0.014 | [4] -0.014 | gefitinib -0.05 | lapatinib -0.005 | pictilisib 0.016 | crizotinib 0.042 | [5] 0.072 | duvelisib 0 | gandotinib -0.099 | tozasertib -0.019 | doramapimod -0.019 | bafetinib 0.003 | [6] -0.056

RPL7L1 (UniProt Q6DKI1)
inactive: alvocidib 0.007 | Tubastatin A -0.008 | [1] 0.005 | defactinib -0.026 | [2] 0.065 | encorafenib 0.004 | [3] 0.044 | alisertib -0.015 | [4] 0.02 | gefitinib -0.006 | lapatinib -0.036 | pictilisib 0.008 | crizotinib -0.043 | [5] -0.061 | duvelisib -0.011 | gandotinib -0.054 | tozasertib -0.042 | doramapimod 0.005 | bafetinib -0.096 | [6] 0.07

RSU1 (UniProt Q15404)
inactive: alvocidib 0.12 | Tubastatin A 0.057 | [1] -0.021 | defactinib -0.042 | [2] -0.008 | encorafenib -0.035 | [3] -0.035 | alisertib -0.005 | [4] 0.015 | gefitinib 0.023 | lapatinib 0.001 | pictilisib 0.045 | crizotinib 0.07 | duvelisib 0.007 | gandotinib -0.116 | tozasertib 0.015 | doramapimod -0.045 | bafetinib 0.039 | [6] -0.135
active: [5] 0.329

RRM1 (UniProt P23921)
inactive: alvocidib -0.004 | Tubastatin A -0.098 | [1] -0.007 | defactinib 0.022 | [2] -0.03 | encorafenib 0.005 | [3] 0.098 | alisertib 0.007 | [4] 0.007 | gefitinib -0.006 | lapatinib 0.003 | pictilisib 0.01 | crizotinib -0.025 | [5] -0.004 | duvelisib -0.052 | gandotinib -0.028 | tozasertib -0.036 | doramapimod -0.017 | bafetinib -0.018 | [6] 0.001
